In the data set the test system is amyloid-beta. The experiment in a line: interdigitated electrode current change (aptamer-GNP immobilized). As to conditions: ethanolamine-blocked surface, no significant current change; Aptamer-GNP on APTES-modified IDE, blocked with 1 M ethanolamine (30 min, RT); PBS listed as reagent, binding buffer, pH and temperature not stated; single-stranded DNA.

Construct, isoform or probe ends are uncertain for at least one entry. No signal at the amounts used counts as a negative.

With “ATAGTCCCATCATTCATTGTATGGTACGGCGCGGTGGCGGGTGCGTGGAGATATTAGCAAGTGTCA [antisynuclein aptamer]”, the binding result is listed as “no binding”.

The record behind these values is PMC6915026.
